From publication PMC3091842 come the findings set out here.

By UniProt entry, the sequences of proteins in these tests, tags left out.
UniProt O75147: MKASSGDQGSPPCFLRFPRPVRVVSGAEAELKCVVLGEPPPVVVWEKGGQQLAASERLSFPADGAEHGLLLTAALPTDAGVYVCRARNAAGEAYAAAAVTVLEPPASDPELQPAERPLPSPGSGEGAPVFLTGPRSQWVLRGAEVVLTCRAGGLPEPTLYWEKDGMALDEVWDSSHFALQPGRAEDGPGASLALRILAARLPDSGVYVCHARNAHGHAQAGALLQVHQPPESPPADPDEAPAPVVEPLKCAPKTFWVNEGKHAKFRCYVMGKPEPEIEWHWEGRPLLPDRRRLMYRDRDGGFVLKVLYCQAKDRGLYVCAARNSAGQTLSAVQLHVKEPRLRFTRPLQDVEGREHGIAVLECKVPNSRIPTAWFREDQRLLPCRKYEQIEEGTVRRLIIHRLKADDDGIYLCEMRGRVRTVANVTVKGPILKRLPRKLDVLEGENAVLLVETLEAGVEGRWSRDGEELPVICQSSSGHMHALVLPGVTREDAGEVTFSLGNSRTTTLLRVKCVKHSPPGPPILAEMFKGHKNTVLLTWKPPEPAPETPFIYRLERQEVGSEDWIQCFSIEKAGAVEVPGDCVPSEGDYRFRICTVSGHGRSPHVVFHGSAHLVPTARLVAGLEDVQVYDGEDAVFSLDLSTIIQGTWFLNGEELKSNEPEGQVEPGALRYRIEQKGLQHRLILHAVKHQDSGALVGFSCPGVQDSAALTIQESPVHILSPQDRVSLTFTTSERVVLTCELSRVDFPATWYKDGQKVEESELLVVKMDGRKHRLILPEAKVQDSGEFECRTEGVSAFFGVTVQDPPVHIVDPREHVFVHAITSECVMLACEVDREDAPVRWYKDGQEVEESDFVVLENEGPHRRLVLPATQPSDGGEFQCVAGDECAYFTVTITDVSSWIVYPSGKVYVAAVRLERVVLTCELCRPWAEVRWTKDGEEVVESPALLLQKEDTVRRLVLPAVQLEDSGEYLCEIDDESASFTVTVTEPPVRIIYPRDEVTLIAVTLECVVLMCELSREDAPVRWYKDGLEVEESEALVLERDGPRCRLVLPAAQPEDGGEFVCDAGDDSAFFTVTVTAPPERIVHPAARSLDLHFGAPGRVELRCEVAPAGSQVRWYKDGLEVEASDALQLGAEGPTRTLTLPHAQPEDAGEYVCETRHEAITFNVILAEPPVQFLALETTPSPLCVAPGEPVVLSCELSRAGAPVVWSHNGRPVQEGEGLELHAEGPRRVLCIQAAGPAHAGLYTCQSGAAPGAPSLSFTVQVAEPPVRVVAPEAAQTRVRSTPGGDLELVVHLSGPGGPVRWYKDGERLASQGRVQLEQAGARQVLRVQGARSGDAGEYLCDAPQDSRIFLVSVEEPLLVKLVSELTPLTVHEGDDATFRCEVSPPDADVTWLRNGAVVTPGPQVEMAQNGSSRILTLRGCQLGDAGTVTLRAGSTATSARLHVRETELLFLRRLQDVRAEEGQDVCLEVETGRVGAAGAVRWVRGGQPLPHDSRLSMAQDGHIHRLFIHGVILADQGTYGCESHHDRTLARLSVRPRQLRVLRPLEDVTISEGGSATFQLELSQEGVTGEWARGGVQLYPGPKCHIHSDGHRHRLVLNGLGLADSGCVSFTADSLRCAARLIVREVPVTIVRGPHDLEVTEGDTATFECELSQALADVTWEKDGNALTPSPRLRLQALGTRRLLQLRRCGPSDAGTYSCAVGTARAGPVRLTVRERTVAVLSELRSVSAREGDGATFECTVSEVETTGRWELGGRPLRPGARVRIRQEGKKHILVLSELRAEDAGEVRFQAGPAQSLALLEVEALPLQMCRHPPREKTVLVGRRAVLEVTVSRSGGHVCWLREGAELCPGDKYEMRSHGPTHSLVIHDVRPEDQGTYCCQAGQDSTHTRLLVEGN
UniProt Q14999: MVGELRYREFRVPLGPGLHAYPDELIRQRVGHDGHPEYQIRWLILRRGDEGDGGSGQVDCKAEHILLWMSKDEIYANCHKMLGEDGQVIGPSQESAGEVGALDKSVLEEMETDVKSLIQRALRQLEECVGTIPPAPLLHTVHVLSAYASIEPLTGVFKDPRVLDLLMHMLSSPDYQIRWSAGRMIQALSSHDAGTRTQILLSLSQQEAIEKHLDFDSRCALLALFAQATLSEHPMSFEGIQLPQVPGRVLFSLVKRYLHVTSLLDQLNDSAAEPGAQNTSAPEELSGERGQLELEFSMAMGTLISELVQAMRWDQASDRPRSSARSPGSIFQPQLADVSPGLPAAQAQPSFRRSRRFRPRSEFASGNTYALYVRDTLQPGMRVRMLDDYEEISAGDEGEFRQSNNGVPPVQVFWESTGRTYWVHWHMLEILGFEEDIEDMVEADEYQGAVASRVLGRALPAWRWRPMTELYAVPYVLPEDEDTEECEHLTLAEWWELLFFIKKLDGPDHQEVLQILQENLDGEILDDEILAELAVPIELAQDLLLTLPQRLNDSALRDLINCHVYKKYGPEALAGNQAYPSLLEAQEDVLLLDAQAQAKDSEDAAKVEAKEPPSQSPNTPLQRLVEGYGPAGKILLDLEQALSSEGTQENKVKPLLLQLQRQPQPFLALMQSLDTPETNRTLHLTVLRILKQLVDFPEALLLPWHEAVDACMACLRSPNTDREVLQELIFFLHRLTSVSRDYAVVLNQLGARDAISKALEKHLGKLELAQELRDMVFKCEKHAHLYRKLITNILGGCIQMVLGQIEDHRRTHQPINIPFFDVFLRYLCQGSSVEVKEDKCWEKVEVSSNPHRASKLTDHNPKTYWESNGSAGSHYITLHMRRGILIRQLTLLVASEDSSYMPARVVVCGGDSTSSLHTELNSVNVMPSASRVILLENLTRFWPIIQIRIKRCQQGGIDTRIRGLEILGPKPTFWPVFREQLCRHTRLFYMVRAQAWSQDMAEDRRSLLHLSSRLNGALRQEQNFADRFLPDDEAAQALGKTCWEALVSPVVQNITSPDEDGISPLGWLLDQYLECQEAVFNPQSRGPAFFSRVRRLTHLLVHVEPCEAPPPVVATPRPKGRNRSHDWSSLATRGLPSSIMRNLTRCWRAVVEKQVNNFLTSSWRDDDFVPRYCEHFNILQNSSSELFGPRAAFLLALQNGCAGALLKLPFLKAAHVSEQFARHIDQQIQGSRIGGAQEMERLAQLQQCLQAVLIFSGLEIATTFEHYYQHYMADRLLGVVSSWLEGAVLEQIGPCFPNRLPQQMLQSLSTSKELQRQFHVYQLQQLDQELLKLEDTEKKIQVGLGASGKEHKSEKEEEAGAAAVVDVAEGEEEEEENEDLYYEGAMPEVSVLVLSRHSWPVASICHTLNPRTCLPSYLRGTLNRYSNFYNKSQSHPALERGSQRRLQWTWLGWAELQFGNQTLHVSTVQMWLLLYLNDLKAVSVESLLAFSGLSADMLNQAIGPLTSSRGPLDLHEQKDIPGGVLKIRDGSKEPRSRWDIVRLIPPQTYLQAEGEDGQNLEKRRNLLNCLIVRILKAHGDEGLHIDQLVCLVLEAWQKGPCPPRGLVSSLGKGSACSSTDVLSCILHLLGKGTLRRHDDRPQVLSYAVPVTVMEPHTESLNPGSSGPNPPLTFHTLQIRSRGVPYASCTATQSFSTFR
UniProt O35254: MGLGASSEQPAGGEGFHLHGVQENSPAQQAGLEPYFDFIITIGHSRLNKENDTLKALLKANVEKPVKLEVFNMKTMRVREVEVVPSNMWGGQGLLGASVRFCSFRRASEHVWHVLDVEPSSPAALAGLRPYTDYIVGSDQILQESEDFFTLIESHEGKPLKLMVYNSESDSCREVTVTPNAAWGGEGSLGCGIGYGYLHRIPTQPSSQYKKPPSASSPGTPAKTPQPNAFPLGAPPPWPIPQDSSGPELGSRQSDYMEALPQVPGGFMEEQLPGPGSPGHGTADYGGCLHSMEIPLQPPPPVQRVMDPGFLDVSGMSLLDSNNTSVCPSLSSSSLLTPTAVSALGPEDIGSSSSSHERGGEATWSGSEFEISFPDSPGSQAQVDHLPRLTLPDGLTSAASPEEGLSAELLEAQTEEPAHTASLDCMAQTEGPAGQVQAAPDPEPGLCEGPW
UniProt Q8VE73: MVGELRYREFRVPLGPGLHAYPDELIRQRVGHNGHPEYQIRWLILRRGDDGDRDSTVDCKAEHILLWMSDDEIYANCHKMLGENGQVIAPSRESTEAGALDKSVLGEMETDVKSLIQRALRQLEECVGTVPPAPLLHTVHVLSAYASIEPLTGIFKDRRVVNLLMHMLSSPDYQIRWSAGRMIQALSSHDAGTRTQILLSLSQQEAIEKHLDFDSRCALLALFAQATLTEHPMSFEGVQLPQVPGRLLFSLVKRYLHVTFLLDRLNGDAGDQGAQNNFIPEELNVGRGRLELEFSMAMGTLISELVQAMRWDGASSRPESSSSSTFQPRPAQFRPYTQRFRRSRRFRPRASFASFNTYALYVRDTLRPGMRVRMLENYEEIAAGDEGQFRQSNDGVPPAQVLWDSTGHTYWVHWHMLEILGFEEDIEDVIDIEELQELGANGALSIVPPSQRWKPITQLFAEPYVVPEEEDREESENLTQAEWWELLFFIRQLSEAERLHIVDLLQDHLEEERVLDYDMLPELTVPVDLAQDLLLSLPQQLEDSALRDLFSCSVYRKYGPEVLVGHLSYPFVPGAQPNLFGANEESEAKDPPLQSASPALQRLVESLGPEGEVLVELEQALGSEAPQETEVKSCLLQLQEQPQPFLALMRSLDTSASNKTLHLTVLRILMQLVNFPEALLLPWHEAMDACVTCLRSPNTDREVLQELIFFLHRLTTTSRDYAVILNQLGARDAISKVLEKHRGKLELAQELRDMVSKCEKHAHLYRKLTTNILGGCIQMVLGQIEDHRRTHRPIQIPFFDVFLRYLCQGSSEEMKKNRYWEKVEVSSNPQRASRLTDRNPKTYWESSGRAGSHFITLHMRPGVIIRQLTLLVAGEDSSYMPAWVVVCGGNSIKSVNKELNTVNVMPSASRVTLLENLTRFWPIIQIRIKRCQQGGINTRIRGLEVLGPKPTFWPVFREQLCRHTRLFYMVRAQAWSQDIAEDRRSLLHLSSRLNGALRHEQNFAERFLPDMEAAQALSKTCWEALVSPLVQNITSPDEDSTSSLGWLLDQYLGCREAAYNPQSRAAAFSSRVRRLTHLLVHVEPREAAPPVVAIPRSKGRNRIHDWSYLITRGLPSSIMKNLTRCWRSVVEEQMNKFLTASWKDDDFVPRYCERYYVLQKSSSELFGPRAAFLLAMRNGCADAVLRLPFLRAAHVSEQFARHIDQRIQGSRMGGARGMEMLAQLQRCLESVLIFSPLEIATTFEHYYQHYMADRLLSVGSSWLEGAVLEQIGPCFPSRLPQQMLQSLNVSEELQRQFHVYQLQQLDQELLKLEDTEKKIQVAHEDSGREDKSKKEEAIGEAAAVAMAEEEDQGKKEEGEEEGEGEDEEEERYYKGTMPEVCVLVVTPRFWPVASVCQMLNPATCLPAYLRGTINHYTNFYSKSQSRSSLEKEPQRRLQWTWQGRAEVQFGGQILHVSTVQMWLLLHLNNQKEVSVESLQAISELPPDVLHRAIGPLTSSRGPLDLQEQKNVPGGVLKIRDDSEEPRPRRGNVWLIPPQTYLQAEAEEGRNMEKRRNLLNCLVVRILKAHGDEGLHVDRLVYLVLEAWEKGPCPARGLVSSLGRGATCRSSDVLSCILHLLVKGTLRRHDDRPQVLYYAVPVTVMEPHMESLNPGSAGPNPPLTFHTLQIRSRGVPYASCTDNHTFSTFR

No constants are given. Whether binding was seen depends on the method and setting. In cells and extracts the contact can be indirect. Some entries that bind do so weakly or less than the wild type. For some assays here: Sequences can lack the tags named with a protein.

Assay [1] has as its target V5-OBSL1 (expressed in 293T cells) (UniProt O75147). Kind of assay: co-IP; lysates of 293T cells transfected with V5-OBSL1 and Cul7-HA (full length or deletion mutants), immunoprecipitated with V5 or HA antibodies, blotted with V5 and HA antibodies; 1% Triton X-100, 150 mM NaCl, 50 mM Tris pH 7.5.
A further assay deals with T1, Flag-Fbxw8 (human) (UniProt Q8N3Y1).
T1 sequence: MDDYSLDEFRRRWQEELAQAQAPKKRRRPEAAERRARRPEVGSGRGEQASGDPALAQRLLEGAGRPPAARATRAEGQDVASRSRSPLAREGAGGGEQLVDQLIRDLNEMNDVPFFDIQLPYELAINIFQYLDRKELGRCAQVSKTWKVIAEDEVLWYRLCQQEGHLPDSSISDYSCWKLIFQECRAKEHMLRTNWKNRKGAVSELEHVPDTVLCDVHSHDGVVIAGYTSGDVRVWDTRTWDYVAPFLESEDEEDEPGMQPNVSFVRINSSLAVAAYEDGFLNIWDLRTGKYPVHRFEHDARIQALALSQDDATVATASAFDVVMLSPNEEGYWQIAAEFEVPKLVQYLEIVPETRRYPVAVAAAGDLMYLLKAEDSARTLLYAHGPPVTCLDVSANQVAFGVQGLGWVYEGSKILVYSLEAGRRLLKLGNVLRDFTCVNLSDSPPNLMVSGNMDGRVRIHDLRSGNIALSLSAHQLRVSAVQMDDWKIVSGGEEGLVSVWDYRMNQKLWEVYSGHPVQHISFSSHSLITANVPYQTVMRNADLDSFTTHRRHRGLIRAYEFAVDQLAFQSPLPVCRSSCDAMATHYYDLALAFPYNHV
Kind of assay: co-IP; lysates of 293T cells transfected with Flag-Fbxw8 and Grasp65-GFP, its mutants or Grasp55-GFP, immunoprecipitated with the Flag antibody (Figure 7F) or the GFP antibody (Figures 7G, S13A); 1% Triton X-100 lysis buffer.

The target in assay [2] is T2, Fbxw8 (endogenous, Neuro2A) (mouse (endogenous in Neuro2A)) (UniProt Q8BIA4).
T2 sequence: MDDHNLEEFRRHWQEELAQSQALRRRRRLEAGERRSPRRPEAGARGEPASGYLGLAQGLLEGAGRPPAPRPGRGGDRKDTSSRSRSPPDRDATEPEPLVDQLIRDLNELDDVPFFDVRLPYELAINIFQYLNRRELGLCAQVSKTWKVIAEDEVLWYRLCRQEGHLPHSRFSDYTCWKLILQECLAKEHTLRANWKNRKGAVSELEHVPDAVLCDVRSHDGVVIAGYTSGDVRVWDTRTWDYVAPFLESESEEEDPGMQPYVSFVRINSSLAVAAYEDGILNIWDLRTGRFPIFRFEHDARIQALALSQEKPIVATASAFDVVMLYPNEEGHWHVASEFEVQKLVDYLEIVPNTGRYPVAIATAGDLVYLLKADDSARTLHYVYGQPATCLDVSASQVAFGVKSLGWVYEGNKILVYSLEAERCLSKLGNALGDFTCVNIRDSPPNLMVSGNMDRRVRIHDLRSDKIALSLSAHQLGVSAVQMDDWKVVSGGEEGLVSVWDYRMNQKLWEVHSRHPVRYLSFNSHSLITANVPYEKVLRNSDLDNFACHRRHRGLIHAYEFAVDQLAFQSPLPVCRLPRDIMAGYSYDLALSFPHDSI
Kind of assay: co-IP; lysates of Neuro2A cells immunoprecipitated with the Fbxw8 antibody or pre-immune serum, blotted with Cul7 and Fbxw8 antibodies; endogenous proteins.

A further assay concerns the target full-length Cul7-HA (UniProt Q14999). Put plainly: co-IP; lysates of 293T cells transfected with V5-OBSL1 and Cul7-HA (full length or deletion mutants), immunoprecipitated with V5 or HA antibodies, blotted with V5 and HA antibodies; 1% Triton X-100, 150 mM NaCl, 50 mM Tris pH 7.5.
The target of assay [3] is Grasp65 (endogenous, cortical neurons) (rat (endogenous in cortical neurons)) (UniProt O35254). Kind of assay: co-IP; lysates of cortical neurons immunoprecipitated with the Grasp65 antibody or pre-immune serum, blotted with Grasp65 and Fbxw8 antibodies; endogenous proteins.

Turning to “full-length Cul7-HA (from UniProt Q14999 1-1698)”, the binding result in assay [1] is given as “binds”.

As to Grasp65-GFP (from UniProt O35254 1-451), in the assay with Flag-Fbxw8 (human), the binding result is on record as “binds”.

As for “Cul7 (endogenous, Neuro2A) (from UniProt Q8VE73 1-1689)”, in assay [2], the binding entry is “binds”.

“V5-OBSL1 (expressed in 293T cells) (from UniProt O75147 1-1896)”: in the assay with full-length Cul7-HA, the binding result was “binds”.

B1: Fbxw8 (endogenous, cortical neurons) (protein, UniProt P0DL28 1-596)
chain: MEDHNLEEFRQRWQEELAHSQVLRRRRRLEAGERRPRRPEAGARGEPASGYLGLAQGLLEGAGRPPAPRPGRTDRKDVSSRSRSPPDRDAAEPEPLVDQLIRDLNEMDDVPFFDVHLPYELAINIFQYLNRRELGLCAQVSKTWKVIAEDEVLWYRLCRQEGHLPHSRFSDYTCWKLILQECLAPVHLIRPSWMNRKGAVSELEHVPDAVLCDVRSHDGVVIAGYTSGEVRVWDTRTWDYVAPFLESESEEEDPGMQPYVSFVRINSSLAVAAYEDGILNVWDLRTGRFPIFRFEHDARIQALALSQEKPVVATASAFDVVMLYPNEEGNWHVASEFEVQKLVDYLEIVPNTGRYPVAIATAGDLVYLLKAEDSARTLHYVYGQPATCLDVSASQVAFGVKSLGWVYEGNKILVYSLEAERCLSKLGNALGDFTCVNIRDSPPNLMVSGNMDRRVRLHDLRTDKIALSLSAHQLGVSAVQMDDWKIVSGGEEGLVSVWDYRMNQKLWEVHSRHPVRYISFNSHSLITANVPYEKVLRNSDLDNFACHRRHRGLIHAYEFAVDQLAFQSPLPICRLPRDTVAGYSYDLALSFPYDSI
With B1, the binding result in assay [3] is reported as “binds”.
